Results from PMC2613389.
No constants are given. Whether binding was seen depends on the method and setting. Binding seen in cells or lysates may run through a third protein. Some entries that bind do so weakly or less than the wild type. Where a sequence is shown, tags or fusion partners need not be part of it.

Amino acid sequences for entries named in this document (tags omitted). A change or cut given only in a name is not applied to a line headed by its entry. Chains listed by the source or under a name are the forms on record and can include a tag or linker. Residues count along the entry.
UniProt P30679: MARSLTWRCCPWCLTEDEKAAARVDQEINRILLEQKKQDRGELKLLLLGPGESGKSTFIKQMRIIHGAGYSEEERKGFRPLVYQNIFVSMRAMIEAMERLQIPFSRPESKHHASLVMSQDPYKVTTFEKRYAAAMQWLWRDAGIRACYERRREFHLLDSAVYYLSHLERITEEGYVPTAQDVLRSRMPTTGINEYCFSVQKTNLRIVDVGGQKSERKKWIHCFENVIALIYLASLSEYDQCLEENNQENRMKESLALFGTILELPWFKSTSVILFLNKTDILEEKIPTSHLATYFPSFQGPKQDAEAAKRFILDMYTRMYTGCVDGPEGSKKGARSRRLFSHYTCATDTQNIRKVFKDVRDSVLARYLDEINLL
Gα16 3A mutant (cluster 1 Asn-Gln-Glu in switch III → Ala) (P30679, form named): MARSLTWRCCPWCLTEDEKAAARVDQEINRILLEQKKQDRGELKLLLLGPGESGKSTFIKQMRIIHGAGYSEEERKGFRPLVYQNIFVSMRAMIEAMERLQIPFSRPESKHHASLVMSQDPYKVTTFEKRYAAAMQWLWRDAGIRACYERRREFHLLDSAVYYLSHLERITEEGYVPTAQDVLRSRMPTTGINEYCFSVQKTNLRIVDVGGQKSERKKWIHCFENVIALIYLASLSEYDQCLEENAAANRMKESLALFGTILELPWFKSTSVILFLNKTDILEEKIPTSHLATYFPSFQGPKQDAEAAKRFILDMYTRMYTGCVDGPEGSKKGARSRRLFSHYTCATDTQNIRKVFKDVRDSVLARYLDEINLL
Gα16 2A-QL mutant (Gly259-Thr260 → Ala, Gln212 → Leu) (P30679, form named): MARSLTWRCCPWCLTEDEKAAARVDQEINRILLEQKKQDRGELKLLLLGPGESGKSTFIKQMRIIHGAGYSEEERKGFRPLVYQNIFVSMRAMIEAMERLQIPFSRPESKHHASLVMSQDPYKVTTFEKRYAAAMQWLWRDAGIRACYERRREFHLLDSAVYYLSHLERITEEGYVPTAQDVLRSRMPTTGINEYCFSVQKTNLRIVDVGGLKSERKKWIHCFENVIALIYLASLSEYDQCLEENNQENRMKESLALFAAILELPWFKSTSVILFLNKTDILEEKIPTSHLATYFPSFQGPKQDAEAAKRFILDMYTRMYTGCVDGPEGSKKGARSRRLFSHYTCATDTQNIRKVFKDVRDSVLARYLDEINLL
Gα16 3A-QL mutant (cluster 1 Asn-Gln-Glu → Ala, Gln212 → Leu) (P30679, form named): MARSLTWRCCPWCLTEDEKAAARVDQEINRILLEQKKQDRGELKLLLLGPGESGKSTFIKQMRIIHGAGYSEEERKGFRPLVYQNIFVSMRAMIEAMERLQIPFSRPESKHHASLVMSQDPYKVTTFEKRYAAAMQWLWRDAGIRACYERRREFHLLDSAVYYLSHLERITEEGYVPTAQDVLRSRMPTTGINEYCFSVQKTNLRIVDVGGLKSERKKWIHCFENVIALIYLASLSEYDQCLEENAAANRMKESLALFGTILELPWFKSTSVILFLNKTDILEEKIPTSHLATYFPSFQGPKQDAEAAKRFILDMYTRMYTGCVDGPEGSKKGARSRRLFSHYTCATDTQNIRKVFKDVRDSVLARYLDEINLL
Gα16QL (constitutively active mutant, Gln212 → Leu) (P30679, form named): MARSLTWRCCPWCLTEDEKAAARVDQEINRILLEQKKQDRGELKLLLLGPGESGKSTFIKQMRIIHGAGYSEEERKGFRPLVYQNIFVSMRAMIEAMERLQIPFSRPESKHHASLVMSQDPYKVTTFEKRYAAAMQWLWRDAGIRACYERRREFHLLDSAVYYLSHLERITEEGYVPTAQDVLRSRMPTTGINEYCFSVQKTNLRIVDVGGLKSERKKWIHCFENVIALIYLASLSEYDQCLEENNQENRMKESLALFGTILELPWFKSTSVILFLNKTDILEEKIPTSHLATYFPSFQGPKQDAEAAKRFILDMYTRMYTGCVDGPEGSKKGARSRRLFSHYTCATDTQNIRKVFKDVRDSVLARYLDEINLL
Gα16 5A mutant (all 5 residues of both clusters → Ala) (P30679, form named): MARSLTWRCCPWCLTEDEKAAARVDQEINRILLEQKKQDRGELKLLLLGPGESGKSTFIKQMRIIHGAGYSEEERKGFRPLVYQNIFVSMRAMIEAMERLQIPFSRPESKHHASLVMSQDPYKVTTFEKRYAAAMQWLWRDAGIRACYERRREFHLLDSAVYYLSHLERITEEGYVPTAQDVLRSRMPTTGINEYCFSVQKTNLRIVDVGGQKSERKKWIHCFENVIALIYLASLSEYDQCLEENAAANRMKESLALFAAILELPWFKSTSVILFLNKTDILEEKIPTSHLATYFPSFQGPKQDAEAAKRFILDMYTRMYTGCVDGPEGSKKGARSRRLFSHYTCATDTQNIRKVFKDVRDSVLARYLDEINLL
Gα16 5A-QL mutant (all 5 residues of both clusters → Ala, Gln212 → Leu) (P30679, form named): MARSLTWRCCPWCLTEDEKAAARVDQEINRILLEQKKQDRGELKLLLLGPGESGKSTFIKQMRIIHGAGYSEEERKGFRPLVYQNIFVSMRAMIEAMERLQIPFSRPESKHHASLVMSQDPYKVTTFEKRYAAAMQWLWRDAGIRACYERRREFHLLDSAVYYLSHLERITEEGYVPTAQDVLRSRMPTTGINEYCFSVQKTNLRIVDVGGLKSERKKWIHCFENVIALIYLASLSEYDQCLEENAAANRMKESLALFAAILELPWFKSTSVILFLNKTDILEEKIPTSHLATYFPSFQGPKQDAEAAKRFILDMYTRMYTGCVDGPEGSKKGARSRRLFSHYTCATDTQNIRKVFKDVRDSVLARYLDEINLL
Gα16 2A mutant (Gly259-Thr260 → Ala) (P30679, form named): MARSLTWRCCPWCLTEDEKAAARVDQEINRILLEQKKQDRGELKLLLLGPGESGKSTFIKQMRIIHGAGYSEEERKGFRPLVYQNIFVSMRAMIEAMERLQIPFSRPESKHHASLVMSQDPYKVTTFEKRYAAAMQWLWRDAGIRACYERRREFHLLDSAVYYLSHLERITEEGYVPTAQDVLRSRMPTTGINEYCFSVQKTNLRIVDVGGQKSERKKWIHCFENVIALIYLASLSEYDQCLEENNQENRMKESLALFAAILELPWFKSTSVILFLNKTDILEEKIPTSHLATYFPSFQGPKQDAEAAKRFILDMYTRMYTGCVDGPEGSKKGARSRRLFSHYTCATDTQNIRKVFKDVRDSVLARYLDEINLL

Molecular target: T1, Flag-tagged full-length tetratricopeptide repeat 1 (TPR1) (human) (UniProt Q99614)
T1 sequence: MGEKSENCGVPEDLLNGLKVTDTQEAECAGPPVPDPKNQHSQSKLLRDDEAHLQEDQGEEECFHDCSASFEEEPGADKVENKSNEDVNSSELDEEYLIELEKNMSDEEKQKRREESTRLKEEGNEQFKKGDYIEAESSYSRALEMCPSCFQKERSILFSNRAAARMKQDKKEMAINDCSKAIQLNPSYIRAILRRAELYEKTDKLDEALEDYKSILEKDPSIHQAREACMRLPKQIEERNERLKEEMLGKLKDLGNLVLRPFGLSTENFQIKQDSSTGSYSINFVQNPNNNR
Assay: co-IP; HEK293 cells co-transfected with Flag-TPR1 and Gα16 constructs; cells treated with 0.5 mM DSP cross-linker for 15 min and lysed in RIPA buffer; IP with anti-FLAG affinity agarose (4°C overnight) or anti-Gα16 antiserum and protein G-agarose; Western blot

| binding | Substance |
| --- | --- |
| binds | Gα16 (wild type) (from UniProt P30679 1-374) |
| binds | Gα16 3A mutant (cluster 1 Asn-Gln-Glu in switch III → Ala) (from UniProt P30679 1-374) |
| binds | Gα16QL (constitutively active mutant, Gln212 → Leu) (from UniProt P30679 1-374) |
| binds | Gα16 2A mutant (Gly259-Thr260 → Ala) (from UniProt P30679 1-374) |

More lines, now with the values behind:

| Substance | binding |
| --- | --- |
| Gα16 2A-QL mutant (Gly259-Thr260 → Ala, Gln212 → Leu) (from UniProt P30679 1-374) | binds |
| Gα16 3A-QL mutant (cluster 1 Asn-Gln-Glu → Ala, Gln212 → Leu) (from UniProt P30679 1-374) | binds |
| Gα16 5A mutant (all 5 residues of both clusters → Ala) (from UniProt P30679 1-374) | binds |
| Gα16 5A-QL mutant (all 5 residues of both clusters → Ala, Gln212 → Leu) (from UniProt P30679 1-374) | binds |
